# Source: PMC12827997
# Amino acid sequences for entries named in this document (tags omitted). Residues count along the entry.
# UniProt O00206, residues 24-839: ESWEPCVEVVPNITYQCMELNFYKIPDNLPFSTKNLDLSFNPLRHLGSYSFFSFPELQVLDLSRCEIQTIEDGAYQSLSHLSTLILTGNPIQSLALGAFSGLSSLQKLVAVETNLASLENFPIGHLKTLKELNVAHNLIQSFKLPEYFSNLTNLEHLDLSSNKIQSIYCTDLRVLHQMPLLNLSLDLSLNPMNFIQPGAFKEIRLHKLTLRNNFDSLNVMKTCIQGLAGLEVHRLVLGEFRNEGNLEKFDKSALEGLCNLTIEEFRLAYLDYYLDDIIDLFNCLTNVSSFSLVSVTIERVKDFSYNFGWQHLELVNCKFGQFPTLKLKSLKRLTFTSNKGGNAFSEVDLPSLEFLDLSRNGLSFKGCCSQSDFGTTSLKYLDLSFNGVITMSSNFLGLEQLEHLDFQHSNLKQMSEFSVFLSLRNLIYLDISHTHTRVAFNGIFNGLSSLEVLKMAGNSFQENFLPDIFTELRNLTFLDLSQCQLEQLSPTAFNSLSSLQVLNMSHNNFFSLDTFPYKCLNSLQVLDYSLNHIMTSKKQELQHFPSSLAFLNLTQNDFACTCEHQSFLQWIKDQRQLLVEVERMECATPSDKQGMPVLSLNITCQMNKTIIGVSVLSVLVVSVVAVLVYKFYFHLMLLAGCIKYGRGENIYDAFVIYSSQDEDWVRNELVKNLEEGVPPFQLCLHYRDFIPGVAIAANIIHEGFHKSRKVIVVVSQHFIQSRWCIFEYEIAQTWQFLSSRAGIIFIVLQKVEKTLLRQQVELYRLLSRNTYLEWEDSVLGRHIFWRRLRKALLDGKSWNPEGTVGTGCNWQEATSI
# UniProt P06733: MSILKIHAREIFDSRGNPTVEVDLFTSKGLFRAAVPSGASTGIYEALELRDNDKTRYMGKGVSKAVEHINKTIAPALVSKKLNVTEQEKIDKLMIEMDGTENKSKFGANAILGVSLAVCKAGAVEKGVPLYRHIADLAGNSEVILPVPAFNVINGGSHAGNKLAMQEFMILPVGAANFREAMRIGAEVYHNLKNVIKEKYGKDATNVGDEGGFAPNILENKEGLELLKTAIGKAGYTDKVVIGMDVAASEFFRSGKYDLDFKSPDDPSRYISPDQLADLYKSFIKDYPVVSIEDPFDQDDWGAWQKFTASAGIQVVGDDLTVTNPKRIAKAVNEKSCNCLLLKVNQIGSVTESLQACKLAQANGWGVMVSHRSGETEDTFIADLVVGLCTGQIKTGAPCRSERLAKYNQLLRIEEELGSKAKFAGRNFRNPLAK
# UniProt O75396: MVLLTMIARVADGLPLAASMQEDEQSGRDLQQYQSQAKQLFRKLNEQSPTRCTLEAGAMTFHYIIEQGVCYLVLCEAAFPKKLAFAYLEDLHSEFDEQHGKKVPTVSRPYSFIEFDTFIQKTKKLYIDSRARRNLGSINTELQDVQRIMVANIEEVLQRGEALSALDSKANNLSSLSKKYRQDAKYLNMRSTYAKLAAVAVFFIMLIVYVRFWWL
# Results are given in words; binding and its absence hold for the method and conditions named. In cells and extracts the contact can be indirect. Some binding calls cover weakened binding; strength is not graded here.
# Legend:
# [1] = molecular target: Toll-like receptor 4 (TLR4) (human (endogenous in GBM cell lines)) (UniProt O00206); assay: co-IP; endogenous proteins in GBM cell lysates (IP lysis/wash buffer with protease and phosphatase inhibitors); target-specific antibody on Protein A/G magnetic beads, overnight at 4 °C; Western blot; cells untreated, shENO1, or treated with rhENO1 (1 μg/mL)
# [2] = molecular target: Alpha-enolase (ENO1) (human (endogenous in GBM cell lines)) (UniProt P06733); assay: as above
Substance,binding [1],binding [2]
Alpha-enolase (ENO1) (from UniProt P06733 1-434),binds,–
SEC22B (from UniProt O75396 1-215),–,binds
Toll-like receptor 4 (TLR4) (from UniProt O00206 24-839),–,binds
